Measurements published in PubChem BioAssay AID2685 (National Center for Advancing Translational Sciences (NCATS), 2010).
The other results are listed elsewhere or left out. The main result of the screen is listed elsewhere. These columns were measured beside it and carry no call. Most of these compounds were active or inconclusive in the main read-out, so they are no random draw. Potencies come from curve fits of mixed quality, noted in brackets.

Experiment: qHTS Assay for Lipid Storage Modulators in Drosophila S3 Cells;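 as to cell number change: cells counted by Cell Tracker Red CMTPX staining in the red channel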
Conditions: BODIPY lipid droplet fluorescence, 18-24 h; for cell number change: measured here: cell count max response, cells fed with added oleic acid
How it was run: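 Drosophila S3 cells loaded with oleic acid (400 uM, as added) and compounds at several concentrations; lipid droplets imaged by 488-nm laser-scanning cytometry, 500–530 nm intensity and object ratio to cell channel. Percent activity normalized to 20 uM Triacsin C.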

[1] = measured here: cell number channel AC50, cells fed with added oleic acid
[2] = measured here: lipid fluorescence (Fed channel) AC50, cells fed with added oleic acid

For `COc1ccc(OCC(=O)Nc2cc(-c3nn(C)c(=O)c4ccccc34)ccc2OC)cc1`, the cell number change was -46.2%, the AC50 [1] was 18.4 µM [falling, single point] and the AC50 [2] was 23.1 µM [falling, single point].
For `Cc1c(OCC(=O)NCCCN2CCCC2=O)ccc2c3c(c(=O)oc12)CCCC3`, the AC50 [2] was 5.17 µM [falling, partial curve].
`CN(C(=O)c1cccc(N2C(=O)C3CC=CCC3C2=O)c1)C1CCCCC1` (stereo not drawn) gave a cell number change of -1.12%.
In the case of `Cc1ccccc1OCCSc1nc(N(C)C)nc(N(C)C)n1`, the cell number change is reported as 72.7%, the AC50 [1] is reported as 20.6 µM [rising, single point] and the AC50 [2] is reported as 5.8 µM [rising, partial curve].
In the case of `COc1cccc(CNc2ncc(Br)cc2Br)c1O`, the cell number change is reported as -37.7% and the AC50 [1] is reported as 10.3 µM [falling, partial curve, poor fit].
With `COc1ccc(C(=O)c2coc3ccc(OC(C)=O)cc23)cc1` the cell number change was 18.1% and the AC50 [2] was 32.6 µM [rising, single point].
With `O=[N+]([O-])c1cccc(N/N=C/c2ccc(N3CCOCC3)cc2)c1` the cell number change was -23% and the AC50 [2] was 29.1 µM [falling, single point].
In the case of `COc1ccc(CNCc2cc(Cl)ccc2O)cc1`, the cell number change is reported as 20.9% and the AC50 [2] is reported as 2.91 µM [rising, partial curve].
With `COC(C[C@@H](O)C[C@H](O)[C@@H](C)OCc1ccccc1)OC` the AC50 [2] was 29.1 µM [falling, single point].
In the case of `CCOC(=O)N1CCN(C(=O)COC(=O)c2cccc(C)c2[N+](=O)[O-])CC1`, the cell number change is reported as -7.38% and the AC50 [2] is reported as 32.6 µM [falling, single point].
With `Cc1occc1-c1nnc(SCC(=O)N(C)C)o1` the cell number change was 93.5%, the AC50 [1] was 25.9 µM [rising, partial curve, poor fit] and the AC50 [2] was 29.1 µM [falling, single point].
With `CCc1cc(=O)[nH]c(SCc2ccc(C)cc2)n1` the cell number change was -99.4%, the AC50 [1] was 25.9 µM [falling, partial curve] and the AC50 [2] was 4.11 µM [falling, partial curve].
With `CCCCOc1ccccc1C1NC(=O)CCC1[N+](=O)[O-]` (stereo not drawn) the cell number change was 17.5% and the AC50 [2] was 8.2 µM [rising, partial curve].
In the case of `COCCCNC(=O)CCCN1C(=O)c2cccnc2Sc2ccccc21`, the cell number change is reported as -14.9% and the AC50 [2] is reported as 6.51 µM [rising, single point].
In the case of `CCNC(=S)/N=C(/Nc1ccccc1)Nc1nc(C)cc(C)n1`, the cell number change is reported as -13.1% and the AC50 [2] is reported as 1.64 µM [rising, partial curve, poor fit].
With `C=CCN1C(=O)OC2(CCCCC2)C1(C)O` (stereo not drawn) the cell number change was -29% and the AC50 [2] was 3.66 µM [falling, partial curve].
